We go through two sequences from PMC9068813.

Construct, isoform or probe ends are uncertain for at least one entry. A weaker result is weaker than the reference pair of the same experiment.

The test system of the series is NELF-C patch mutant complex R291Q,K315M,K371M,K372M,K374M,K384M,K388M,R419Q,R506Q,NELF-C:
In words: EMSA (NELF release from PEC). The note with it: 20 mM Na-HEPES pH 7.4, 100 mM NaCl, 25 mM KCl, 3 mM MgCl2, 2 mM DTT, assembly 30 °C, eRNA incubation 15-20 min at room temperature, 3.5% native PAGE 0.5x TBE at 4 °C, recombinant protein, protein details: His-tag (Ni-NTA purified). In general terms: In EMSA bound probe runs differently from free probe, usually more slowly.

Take “GCGGUGAGAGUGAUUUUGUAACUCUAAAGUUACAGAGGGUUUUGUUGUGUUUUUAAUCAAGAGCCCUGGUUUUGAUUUGUGGGUAAUCUUUCUUUAAACC [Nr4a1-(a) eRNA 1-100]”: the binding result (hardly any release) is given as “binds more weakly”.

Regarding “GCGGUGAGAGUGAUUUUGUAACUCUAAAGUUACAGAGGGUUUUGUUGUGUUUUUAAUCAAGAGCCCUGGUUUUGAUUUGUGGGUAAUCUUUCUUUAAACCUCGCCCAUUUCCGGCCUGGUGACCUGGGCCACUUUCUCAUGUUGACCCAGAUGAUCCUCAGUAGCAAGAACAAAAGGACAACAGAUGUGGAAACACUCAA [Nr4a1-(a) eRNA 1-200]”, the binding result (weaker than with ΔRRM) was “binds more weakly”.
